In PMC5341944:
These are yes or no findings as the source states them, for the method shown. In cells and extracts the contact can be indirect. Some binding calls cover weakened binding; strength is not graded here. Sequences can lack the tags named with a protein.

Chains of the proteins cited; added tags and fusions are not shown.
UniProt O60566: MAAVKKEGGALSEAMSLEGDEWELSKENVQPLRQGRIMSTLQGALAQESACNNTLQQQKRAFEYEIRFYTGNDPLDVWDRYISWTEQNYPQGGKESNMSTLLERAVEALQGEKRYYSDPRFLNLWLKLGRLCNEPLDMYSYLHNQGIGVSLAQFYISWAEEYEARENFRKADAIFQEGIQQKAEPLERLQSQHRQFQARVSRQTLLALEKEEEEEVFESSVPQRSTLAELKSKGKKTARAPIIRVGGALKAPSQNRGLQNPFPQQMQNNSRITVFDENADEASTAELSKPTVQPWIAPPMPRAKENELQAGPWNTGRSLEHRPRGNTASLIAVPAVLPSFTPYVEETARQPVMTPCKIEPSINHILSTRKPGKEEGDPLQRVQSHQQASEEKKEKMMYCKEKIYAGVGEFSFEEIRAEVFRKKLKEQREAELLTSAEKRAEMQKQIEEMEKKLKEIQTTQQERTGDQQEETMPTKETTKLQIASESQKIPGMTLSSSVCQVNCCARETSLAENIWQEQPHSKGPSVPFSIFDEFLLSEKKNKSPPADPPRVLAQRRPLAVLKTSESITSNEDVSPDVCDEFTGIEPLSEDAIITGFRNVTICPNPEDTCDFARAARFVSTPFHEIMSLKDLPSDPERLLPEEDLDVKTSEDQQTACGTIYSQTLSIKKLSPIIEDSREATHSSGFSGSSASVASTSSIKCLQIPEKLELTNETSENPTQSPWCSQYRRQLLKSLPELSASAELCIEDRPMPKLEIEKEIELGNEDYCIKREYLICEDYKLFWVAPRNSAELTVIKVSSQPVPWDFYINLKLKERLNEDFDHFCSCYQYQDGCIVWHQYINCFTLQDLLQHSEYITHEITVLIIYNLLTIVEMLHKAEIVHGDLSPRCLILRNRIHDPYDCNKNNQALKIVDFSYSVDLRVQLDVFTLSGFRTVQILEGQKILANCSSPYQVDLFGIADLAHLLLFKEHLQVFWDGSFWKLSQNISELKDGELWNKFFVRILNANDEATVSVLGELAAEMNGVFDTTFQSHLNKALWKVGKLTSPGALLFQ
UniProt Q96H22: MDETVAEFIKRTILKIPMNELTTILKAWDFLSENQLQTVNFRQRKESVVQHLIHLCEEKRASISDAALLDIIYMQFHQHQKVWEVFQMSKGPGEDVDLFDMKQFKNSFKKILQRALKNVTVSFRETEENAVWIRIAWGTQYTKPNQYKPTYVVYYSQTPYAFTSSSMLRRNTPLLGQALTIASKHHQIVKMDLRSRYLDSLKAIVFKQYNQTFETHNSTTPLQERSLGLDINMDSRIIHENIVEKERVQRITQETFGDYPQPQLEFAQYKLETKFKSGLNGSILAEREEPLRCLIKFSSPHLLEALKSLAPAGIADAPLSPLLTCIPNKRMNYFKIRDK
UniProt Q13257: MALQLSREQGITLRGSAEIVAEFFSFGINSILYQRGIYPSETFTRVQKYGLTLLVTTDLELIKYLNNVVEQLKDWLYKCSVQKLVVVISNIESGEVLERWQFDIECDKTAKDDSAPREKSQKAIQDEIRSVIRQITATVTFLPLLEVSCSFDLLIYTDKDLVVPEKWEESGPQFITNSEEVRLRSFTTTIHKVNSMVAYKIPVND

biological target: T1, Flag-DRG1 (developmentally regulated GTP binding protein 1) (UniProt Q9Y295); assay: co-IP; A549, H1299 and HeLa cells transfected with vector or Flag-DRG1, lysed after 48 h in HEPES lysis buffer (20 mM HEPES pH 7.2, 50 mM NaCl, 0.5% Triton X-100, 1 mM NaF, 1 mM DTT, protease inhibitors); immunoprecipitation with Flag antibody 4 h at 4°C, protein A/G-agarose overnight at 4°C; immunoblot with antibodies to the endogenous proteins
T1 sequence: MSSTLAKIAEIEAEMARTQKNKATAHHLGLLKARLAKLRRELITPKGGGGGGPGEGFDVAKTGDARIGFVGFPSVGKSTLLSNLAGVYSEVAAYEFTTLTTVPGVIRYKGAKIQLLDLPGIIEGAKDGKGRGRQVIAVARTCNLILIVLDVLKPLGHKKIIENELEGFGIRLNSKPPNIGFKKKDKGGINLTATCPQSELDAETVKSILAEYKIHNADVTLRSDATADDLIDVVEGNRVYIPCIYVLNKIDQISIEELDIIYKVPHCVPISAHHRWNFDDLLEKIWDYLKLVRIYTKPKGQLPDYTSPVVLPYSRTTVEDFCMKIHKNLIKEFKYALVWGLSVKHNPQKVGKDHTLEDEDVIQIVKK

binding	Substance
binds	BubR1 (from UniProt O60566 1-1050)
binds	CENPN (centromere protein N) (from UniProt Q96H22 1-339)
binds	Mad2 (MAD2 mitotic arrest deficient-like 1) (from UniProt Q13257 1-205)
